Data on six substances can be found in US10729782B2 (DAIICHI SANKYO COMPANY, LIMITED, priority 2012, dated 2020).

The data set in a line: general procedure: solution-phase peptide synthesis; 1-(3-dimethylaminopropyl)-3-ethylcarbodiimide hydrochloride / N-hydroxysuccinimi. Conditions: trifluoroacetate; for conjugation yield: conjugation step.

The substance “N^2-[6-(2,5-dioxo-2,5-dihydro-1H-pyrrol-1-yl)hexanoyl]-L-lysylglycylglycyl-L-phenylalanyl-N-[(1S,9S)-9-ethyl-5-fluoro-9-hydroxy-4-methyl-10,13-dioxo-2,3,9,10,13,15-hexahydro-1H,12H-benzo[de]pyrano[3′,4′:6,7]indolidino[1,2-b]quinolin-1-yl]glycineamide trifluoroacetate” displayed a step yield (late stage modification step) of 78%. “N-[(9H-fluoren-9-ylmethoxy)carbonyl]glycylglycyl-N-(4-{[(1S,9S)-9-ethyl-5-fluoro-9-hydroxy-4-methyl-10,13-dioxo-2,3,9,10,13,15-hexahydro-1H,12H-benzo[de]pyrano[3′,4′:6,7]indolizino[1,2-b]quinolin-1-yl]amino}-4-oxobutyl)-L-phenylalaninamide” had a conjugation yield of 40%. For “N^6-(tert-butoxycarbonyl)-L-lysylglycylglycyl-L-phenylalanyl-N-[(1S,9S)-9-ethyl-5-fluoro-9-hydroxy-4-methyl-10,13-dioxo-2,3,9,10,13,15-hexahydro-1H,12H-benzo[de]pyrano[3′,4′:6,7]indolizino[1,2-b]quinolin-1-yl]glycinamide”, the step yield (late stage modification step) turned out to be 71%. In the case of “N-(tert-butoxycarbonyl)glycylglycyl-L-phenylalanyl-N-(4-{[(1S,9S)-9-ethyl-5-fluoro-9-hydroxy-4-methyl-10,13-dioxo-2,3,9,10,13,15-hexahydro-1H,12H-benzo[de]pyrano[3′,4′:6,7]indolizino[1,2-b]quinolin-1-yl]amino}-4-oxobutyl)glycinamide”, the conjugation yield turned out to be 73%.

On to “N^6-(tert-butoxycarbonyl)-N^2-[(9H-fluoren-9-ylmethoxy)carbonyl]-L-lysylglycylglycyl-L-phenylalanyl-N-[(1S,9S)-9-ethyl-5-fluoro-9-hydroxy-4-methyl-10,13-dioxo-2,3,9,10,13,15-hexahydro-1H,12H-benzo[de]pyrano[3′,4′:6,7]indolizino[1,2-b]quinolin-1-yl]glycinamide”, for which the step yield (coupling step) is 98%. Under “late stage modification step”, “N^6-(tert-butoxycarbonyl)-N^2-[6-(2,5-dioxo-2,5-dihydro-1H-pyrrol-1-yl)hexanoyl]-L-lysylglycylglycyl-L-phenylalanyl-N-[(1S,9S)-9-ethyl-5-fluoro-9-hydroxy-4-methyl-10,13-dioxo-2,3,9,10,13,15-hexahydro-1H,12H-benzo[de]pyrano[3′,4′:6,7]indolizino[1,2-b]quinolin-1-yl]glycinamide” gave a step yield of 21%.
